Measured values reported in US4261884 (dated 1981).

Assay: general procedure: solution-phase peptide synthesis; dehydro azlactone ring opening; isobutyl chloroformate/N-methylmorpholine mixed

Row | Substance | step yield (coupling step) | other results
1 | BOC-DAla-Gly-ΔPhe-Met NH2 | 54% | –
2 | N-carbobenzoxy-Gly-Gly- Phe-MetNH2 | 60% | –
3 | H.Pro-ΔPhe-His-Leu.OH.2HBr. | – | step yield (late stage modification step, 2HBr): 69%
4 | Z-Pro-ΔPhe-His-Leu.OH | 81% | step yield (late stage modification step): 64%
5 | S-Trityl-3-Mercaptopropanoyl-Prolyl-Δ-Phenylalanyl-Histidyl-Leucine.O | 68% | –
6 | Z-Pro-ΔPhe-His-Leu-OCH3 | – | step yield (coupling step, run 1): 84%; step yield (coupling step, run 2): 76%
